## Library screen at single concentrations

Amino acid sequences for entries named in this document (tags omitted). Residues count along the entry.
UniProt Q8IDJ8, 1-583: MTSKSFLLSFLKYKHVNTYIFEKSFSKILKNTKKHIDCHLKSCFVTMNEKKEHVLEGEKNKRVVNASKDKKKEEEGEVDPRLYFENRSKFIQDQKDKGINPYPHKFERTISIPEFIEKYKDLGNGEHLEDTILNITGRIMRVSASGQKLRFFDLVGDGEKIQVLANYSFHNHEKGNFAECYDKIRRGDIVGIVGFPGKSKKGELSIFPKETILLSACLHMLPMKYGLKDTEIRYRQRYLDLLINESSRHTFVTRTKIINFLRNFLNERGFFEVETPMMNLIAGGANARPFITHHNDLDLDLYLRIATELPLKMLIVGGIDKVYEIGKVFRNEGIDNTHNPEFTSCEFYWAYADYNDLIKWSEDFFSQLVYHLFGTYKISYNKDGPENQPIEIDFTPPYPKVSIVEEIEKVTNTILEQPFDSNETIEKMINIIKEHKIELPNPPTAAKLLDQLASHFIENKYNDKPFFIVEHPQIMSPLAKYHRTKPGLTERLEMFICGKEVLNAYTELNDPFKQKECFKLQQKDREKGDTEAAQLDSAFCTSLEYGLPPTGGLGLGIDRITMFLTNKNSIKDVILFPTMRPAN
UniProt Q4DA54, 1-478: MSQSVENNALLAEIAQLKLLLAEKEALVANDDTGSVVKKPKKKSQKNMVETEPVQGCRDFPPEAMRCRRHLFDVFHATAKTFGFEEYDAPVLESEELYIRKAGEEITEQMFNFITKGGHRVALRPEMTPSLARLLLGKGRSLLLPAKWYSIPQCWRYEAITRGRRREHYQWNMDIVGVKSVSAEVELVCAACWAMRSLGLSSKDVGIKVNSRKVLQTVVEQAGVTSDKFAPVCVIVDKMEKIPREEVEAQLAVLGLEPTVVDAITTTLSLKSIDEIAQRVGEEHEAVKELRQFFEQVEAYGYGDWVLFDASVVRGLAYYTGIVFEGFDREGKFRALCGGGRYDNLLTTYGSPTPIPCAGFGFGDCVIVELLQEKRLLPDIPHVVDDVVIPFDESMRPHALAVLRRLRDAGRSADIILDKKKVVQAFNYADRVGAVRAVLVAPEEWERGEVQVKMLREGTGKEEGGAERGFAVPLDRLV
UniProt I6X8D2, whole entry: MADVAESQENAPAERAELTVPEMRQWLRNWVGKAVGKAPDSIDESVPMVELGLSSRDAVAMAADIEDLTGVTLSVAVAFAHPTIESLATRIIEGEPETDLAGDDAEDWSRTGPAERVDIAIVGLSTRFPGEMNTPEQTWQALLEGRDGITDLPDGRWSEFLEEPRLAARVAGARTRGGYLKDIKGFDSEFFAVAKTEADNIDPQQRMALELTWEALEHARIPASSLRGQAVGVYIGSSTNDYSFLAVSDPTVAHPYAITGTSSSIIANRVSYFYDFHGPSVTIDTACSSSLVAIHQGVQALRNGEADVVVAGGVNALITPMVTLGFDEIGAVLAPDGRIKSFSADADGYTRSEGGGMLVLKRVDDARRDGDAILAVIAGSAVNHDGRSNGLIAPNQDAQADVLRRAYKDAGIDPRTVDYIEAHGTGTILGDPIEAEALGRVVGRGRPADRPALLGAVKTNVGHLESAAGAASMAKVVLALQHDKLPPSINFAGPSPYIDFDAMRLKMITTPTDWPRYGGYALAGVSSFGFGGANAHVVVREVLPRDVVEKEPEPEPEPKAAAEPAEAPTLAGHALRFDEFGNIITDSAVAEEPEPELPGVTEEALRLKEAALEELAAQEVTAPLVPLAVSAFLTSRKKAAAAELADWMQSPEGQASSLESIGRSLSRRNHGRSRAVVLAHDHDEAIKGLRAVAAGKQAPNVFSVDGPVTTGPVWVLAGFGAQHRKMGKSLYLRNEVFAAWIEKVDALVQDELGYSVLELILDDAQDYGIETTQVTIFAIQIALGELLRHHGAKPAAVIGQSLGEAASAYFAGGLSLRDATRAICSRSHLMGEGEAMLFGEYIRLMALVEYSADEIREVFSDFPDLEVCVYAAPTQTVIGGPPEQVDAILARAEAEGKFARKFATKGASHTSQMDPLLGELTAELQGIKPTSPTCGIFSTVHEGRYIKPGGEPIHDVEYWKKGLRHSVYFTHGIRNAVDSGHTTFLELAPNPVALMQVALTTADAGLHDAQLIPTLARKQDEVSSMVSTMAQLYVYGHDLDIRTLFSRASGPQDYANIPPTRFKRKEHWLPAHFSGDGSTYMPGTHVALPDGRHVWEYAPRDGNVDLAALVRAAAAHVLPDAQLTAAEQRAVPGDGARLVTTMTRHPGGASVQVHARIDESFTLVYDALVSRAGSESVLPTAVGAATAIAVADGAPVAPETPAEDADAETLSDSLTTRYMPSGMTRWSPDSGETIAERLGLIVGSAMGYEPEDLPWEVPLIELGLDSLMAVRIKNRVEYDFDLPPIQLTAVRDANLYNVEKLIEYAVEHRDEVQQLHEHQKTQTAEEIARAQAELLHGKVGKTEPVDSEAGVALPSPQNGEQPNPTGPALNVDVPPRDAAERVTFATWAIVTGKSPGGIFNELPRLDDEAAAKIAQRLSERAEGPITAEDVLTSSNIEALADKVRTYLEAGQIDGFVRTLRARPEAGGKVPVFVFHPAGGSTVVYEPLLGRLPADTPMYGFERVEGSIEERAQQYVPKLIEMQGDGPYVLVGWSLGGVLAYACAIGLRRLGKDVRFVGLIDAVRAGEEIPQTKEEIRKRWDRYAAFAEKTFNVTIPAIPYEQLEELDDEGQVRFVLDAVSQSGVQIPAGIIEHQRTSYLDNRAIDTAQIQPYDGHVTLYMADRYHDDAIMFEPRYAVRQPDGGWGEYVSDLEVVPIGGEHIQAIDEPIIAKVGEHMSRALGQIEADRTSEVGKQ

From ChEMBL document CHEMBL3988442, “University of Dundee, Small-Polar-MMV Screening Library” (2021).

PfKRS1: 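Lysine-tRNA ligase, Plasmodium falciparum 3D7 (UniProt Q8IDJ8). Enzyme assay of the cytosolic lysyl-tRNA synthetase in 384-well plates, read by luminescence. Compounds at 30 µM. Higher reads as stronger inhibition, judged from the few compounds that gave an IC50. Size under these conditions: about 69,000 compounds, about 49 of them at 50% or above in at least one test.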
TcHisRS: 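Enzyme assay of histidyl-tRNA synthetase; the read-out is not stated. Target: Histidine-tRNA ligase, Trypanosoma cruzi CL Brener (UniProt Q4DA54). Tested at 30 µM. Higher reads as stronger inhibition (inferred: compounds with an IC50 in retests scored well above the rest). About 69,000 compounds were tested under these conditions; 0.045% (about 31) showed 50% or more at least once.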
Leishmania in macrophages: 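Cell assay of Leishmania donovani living inside macrophages; the read-out is not stated. Concentration: 30 µM. Direction is inferred from retests: higher values go with stronger inhibition. Size under these conditions: about 69,000 compounds, about 1,000 of them at 50% or above in at least one test.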
Pks13 thioesterase: 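Polyketide synthase Pks13, Mycobacterium tuberculosis (UniProt I6X8D2). Enzyme assay of the thioesterase domain of polyketide synthase 13; the read-out is not stated. Tested at 30 µM. Higher reads as stronger inhibition (inferred from which compounds were picked for retests). Size under these conditions: about 67,000 compounds, about 300 of them at 50% or above in at least one test.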

Each number is a percent effect as filed.
The controls that fix the scale are not given in the record; negative values are as filed.
This is an unselected part of the compounds tested.
Two or more numbers in one place are separate tests of the same structure; such repeats can differ widely.
A dash means the value is not listed here; it may have been measured.

| # | compound | PfKRS1 | TcHisRS | Leishmania in macrophages | Pks13 thioesterase |
|---|---|---|---|---|---|
| 1 | `CCC(=O)N1CCN(CCn2cccn2)c2ncccc2C1.O=C(O)C(F)(F)F` | - | - | 12.76% | - |
| 2 | `CCc1nc(NCc2ccccn2)c2c(n1)c(C)nn2C` | -2.838% | -2.632% | -38.07% | -20.14% |
| 3 | `Cc1nc(CCN)cc(N(C)Cc2nc3ccc(F)cc3[nH]2)n1` | -3.111% | 2.703% | -1.442% | - |
| 4 | `Cc1nc(C2CCCN2C(=O)CCc2ccc(F)cc2)ncc1C(N)=O` (stereo not given) | 2% | 0% | 10.7% | 1.524% |
| 5 | `Cc1nc(C)c(CCNC(=O)NC2CC(=O)N(C(C)(C)C)C2)s1` (stereo not given) | 0.3215% | 0% | 12.66% | - |
| 6 | `Cc1[nH]c2c(C)ccc(C)c2c1CC(=O)NCC(O)c1cccnc1` (stereo not given) | -1.218% | 2.632% | 7.349% | -29.58% |
| 7 | `CC(C)Sc1ncccc1C(=O)NCc1ccc(CS(C)(=O)=O)cc1` | -3.799% | 3.383% | -4.355% | -4.782% |
| 8 | `O=C(Nc1cc(C(F)(F)F)c[nH]c1=O)N1CCCSCC1` | 11.28% | 2.29% | -11.08% | -0.5645% |
| 9 | `Cc1nc(C)n(C2CCCN(C(=O)Cc3csc(C(C)C)n3)C2)n1` (stereo not given) | 0.6846% | 2.035% | -8.333% | 4.988% |
| 10 | `Cc1cc(C)n(CC2CCCN2C(=O)c2cccnc2N(C)C)n1` (stereo not given) | -1.639% | 3.725% | 23.94% | -5.696% |
| 11 | `Cc1cccc(CO[C@@H]2CO[C@@]3(CCN(S(=O)(=O)N(C)C)C3)C2)n1.O=C(O)C(F)(F)F` | - | - | 30.36% | - |
| 12 | `COCc1ccc(C(=O)N2CCCN(Cc3ccc(F)cc3)CC2)s1` | -2.782% | 4.39% | -8.343% | -9.216% |
| 13 | `CCc1nc(N)sc1C(=O)N1CCCC(COc2cccc(C)c2)C1` (stereo not given) | 2.607% | 5.435% | -12.25% | 7.374% |
| 14 | `CCn1ncnc1C1CC(=O)NCc2nc3ccccn3c21` (stereo not given) | 2.195% | -0.8264% | 27.88% | -7.9% |
| 15 | `CN(C)S(=O)(=O)N1CCCCC1CCc1ccc(O)cc1` (stereo not given) | 1.897% | 3.96% | 3.483% | -37.97% |
| 16 | `Cc1ccsc1C(=O)N1CC[C@H]2CO[C@H](CN(C)C)[C@H]2C1` | 2.533% | 1.149% | - | -32.16% |
| 17 | `Cn1ccnc1CN1CCC2(CC(=O)N(c3ccsc3)C2)C1` (stereo not given) | -0.2962% | 5.102% | - | 6.165% |
| 18 | `O=C(O)C(F)(F)F.[H][C@@]12CN(Cc3ccco3)C[C@]1([H])C(=O)N(c1ccsc1)C2` | - | - | 18.83% | - |
| 19 | `CCOC(=O)CC(c1ccc(OC)c(OC)c1)c1c(O)n[nH]c1C` (stereo not given) | 1.378% | 5.155% | -0.558% | -12.01% |
| 20 | `COCCn1c(=O)n(C)c(=O)c2ccc(C3CCC(CN)CC3)nc21` (stereo not given) | 5.661% | 5.303% | - | 6.402% |
| 21 | `COc1ccc2cc(NC(=O)CCNc3ncccn3)cnc2c1` | 0.8728% | 2.924% | 0.3695% | -38.12% |
| 22 | `COC(=O)CC(c1cccnc1)c1oc(C)cc(=O)c1O` (stereo not given) | 4.676% | 1.205% | -22.12% | -19.66% |
| 23 | `CC(C)OCCCNC(=O)c1cccnc1N1CCOCC1` | -1.604% | 4.933% | 15.66% | -7.971% |
| 24 | `Cc1cc(N2CCCN3CCC[C@H]3C2)n2nc(C)c(C)c2n1` | -0.7783% | 5.102% | - | -13.86% |
| 25 | `COCC1(NC(=O)C(c2ccc(F)cc2)N(C)C)CCCC1` (stereo not given) | 0.5081% | 1.685% | -8.027% | 10.02% |
| 26 | `Cc1ncsc1C(=O)N1CCCC1c1c(C)nn(C)c1Cl` (stereo not given) | 0.4959% | -0.2865% | 1.795% | 5.066% |
| 27 | `CC(=O)N1CCC(CCNC(C)Cc2ccc(F)cc2)CC1` (stereo not given) | -0.9463% | 3.279% | -52.89% | -20.81% |
| 28 | `CN1CCNC(=O)C12CCN(C(=O)c1ccc3[nH]c(=O)[nH]c3c1)CC2` | 1.357% | 7.2% | -4.536% | -2.161% |
| 29 | `O=C(NCC1CCCO1)c1cc(-c2ccncc2)c2cnccc2n1` (stereo not given) | 1.549% | -13.41% | - | -1.929% |
| 30 | `CC1(C)COCCN1C(=O)CCc1nc(-c2ccncc2)no1` | -1.37% | 3.448% | 0.2365% | 0.554% |
| 31 | `Oc1cc(CCC2CCCCN2)cc(-c2cccnc2)c1` (stereo not given) | 0.6935% | 2.618% | 51.21% | -27.26% |
| 32 | `CCSCCn1c(=O)n(Cc2ccc(F)cc2)c2ncc(C(=O)O)cc21` | 4.672% | 4.865% | -4.884% | -29.21% |
| 33 | `C(=C\c1ccccc1)/CNCC1CCc2nncn2C1` (stereo not given) | - | - | -5.474% | - |
| 34 | `CCN(c1ccc(C(=O)NCCCN2CCCC2)cc1)S(=O)(=O)CC` | 6.349% | 7.609% | 22.63% | -23.92% |
| 35 | `Cc1ccsc1CNC(=O)Cc1c(C)nc2c(c1C)c(=O)[nH]n2C` | 2.34% | 2.642% | -21.88% | -9.852% |
| 36 | `CCN(C(=O)c1nc2c(s1)CCCN2C(C)=O)C(C)C` | 4.834% | 6.145% | 18.51% | 2.102% |
| 37 | `CO[C@H]1CCN(c2nnc(C)s2)C[C@@H]1Cc1ccccc1` | 3.248% | 2.488% | - | -35.73% |
| 38 | `O=C(Cc1cccs1)N1CC[C@H]2[C@H]1CCN2Cc1cccnc1` | 3.495% | 5.825% | - | -29.25% |
| 39 | `O=C(NCC1CCOC1)c1cc(-c2cccc(Cl)c2)on1` (stereo not given) | 3.86% | 2.29% | 13.65% | -2.911% |
| 40 | `CCOc1ccc2[nH]c(=O)c(CN3CCC(O)CC3)cc2c1` | -0.2075% | -0.8264% | 18.68% | 1.217% |
| 41 | `CCC(NC(N)=O)c1ccccc1OCC(=O)N1CCCC1` (stereo not given) | 2.415% | 0.7634% | 9.229% | -1.108% |
| 42 | `CCOCCC(=O)N1C[C@H]2CC[C@@H]1CN(c1ncccn1)C2` | 4.026% | 4.469% | - | -26.29% |
| 43 | `CCN(C)CC1CCN(C(=O)Nc2ccc(-c3csnn3)cc2)C1` (stereo not given) | -0.4658% | 0.8403% | 8.53% | -7.693% |
| 44 | `CC(=O)Nc1ccsc1C(=O)N1CC[C@@H]2CC[C@H](C1)N2C` | 1.477% | 0.6369% | - | -45.83% |
| 45 | `CC(CNC(=O)Nc1ccc(N(C)C)nc1)Cn1cccn1` (stereo not given) | 6.32% | 4.878% | -2.456% | 12.66% |
| 46 | `Cc1cnn(CC2CCCN2Cc2nnc(C(C)C)o2)c1` (stereo not given) | 4.215% | 3.488% | -8.347% | -6.308% |
| 47 | `CCCc1csc(-c2ccc(S(C)(=O)=O)cc2)n1` | 7.422% | 3.097% | 17.73% | -15.48% |
| 48 | `Cc1ccc(CN2C[C@@H](N(C)C)[C@H]3OCCC[C@H]32)o1` | 0.8532% | 4.908% | - | 18.76% |
| 49 | `CN(Cc1ccccc1)CC1CC2(CO1)CN(c1nncs1)C2` (stereo not given) | 2.641% | 5.376% | -2.057% & 25.34% | -26.6% |
| 50 | `O=C([C@H]1C[C@H]2OCC[C@H]2N(C(=O)c2ccnnc2)C1)N1CCCCO1` | 2.51% | -0.9804% | - | -29.22% |
| 51 | `CCc1nc2n(n1)CCCC2NC(=O)Nc1cccc(F)c1F` (stereo not given) | 7.36% | 4.202% | 19.99% | 31.44% |
| 52 | `O=C(CS(=O)(=O)Cc1csc(-c2ccc(F)cc2)n1)NCC1CC1` | 0.9794% | 8.287% | 20.55% | -28.44% |
| 53 | `Cc1cccc(N2CCN(C(=O)C3CC4(CCNCC4)CN3)CC2)n1` (stereo not given) | 1.621% | 1.093% | 82.82% | -6.024% |
| 54 | `Cc1nonc1N1CCN(Cc2nc(CC3CC3)no2)CC1` | 0.3444% | 4.255% | 19.01% | -24.67% |
| 55 | `CC(=O)NC[C@@H]1C=C(C)[C@H](CC(=O)NCCN(C)C)C[C@H]1C(C)C` | -5.272% | -14.85% | -20.39% | -3.798% |
| 56 | `COC(=O)CC(NC(=O)c1cccc(N2CCCC2=O)c1)C(=O)OC` (stereo not given) | 4.554% | 1.676% | 21.5% | -9.252% |
| 57 | `COCCN1C(=O)c2ccc(C(=O)NCCc3c[nH]cn3)cc2C1=O` | -3.4% | 0% | -0.5719% & 25.29% | -100.5% |
| 58 | `O=S(=O)(C1CC1)N1Cc2[nH]nc(COCC3CC3)c2C1` | 5.81% | 0% | - | 12.71% |
| 59 | `COCCN(C)CCN1CC2(CCN(C3CCOCC3)CC2)OC1=O` | -2.66% | -18.59% | -32.73% | -47.22% |
| 60 | `O=C(c1ccncc1)N1CCc2onc(CN3CCCC3)c2C1` | -11.64% | -3.743% | -4.71% | -1.117% |
| 61 | `Cc1nnc(SC2CCc3ccccc3NC2=O)n1C` (stereo not given) | 3.966% | 4.969% | 6.137% | -3.781% |
| 62 | `Cc1ccc(C(CNCC2CC2)N2CCOCC2)s1` (stereo not given) | -0.6864% | 2.674% | 28.54% | - |
| 63 | `CN1CCCC1c1cccc(Cc2ccccc2F)n1` (stereo not given) | 7.165% | 3.784% | 30.92% | -56.24% |
| 64 | `O=C(c1cc(CC2(NC3CCCCC3)COC2)no1)N1CCCCC1` | 0.9907% | 5.941% | -13.15% | 25.43% |
| 65 | `Cn1nnc2c1CCN(C(=O)C1CC1)C2COCCN1CCCC1` (stereo not given) | 10.82% | 5.882% | - | 5.416% |
| 66 | `O=C(O)C(F)(F)F.[H][C@@]12CCN(Cc3c(C)noc3C)C[C@]1(C(=O)N1CCCC1)CCO2` | - | - | 17.76% | - |
| 67 | `O=C(O)C(F)(F)F.O=C(c1cccc(Cl)c1)N1CCCn2c(CN3CCCCC3)nnc2C1` | - | - | 24.23% | - |
| 68 | `CC(C)=CCN1CCC2(CC1)c1ccccc1[C@@H](N1CCSCC1)[C@@H]2O` | 2.021% | 9.551% | -6.215% | - |

The first 6 entries again:

compound	PfKRS1	TcHisRS	Leishmania in macrophages	Pks13 thioesterase
CCC(=O)N1CCN(CCn2cccn2)c2ncccc2C1.O=C(O)C(F)(F)F	-	-	12.76%	-
CCc1nc(NCc2ccccn2)c2c(n1)c(C)nn2C	-2.838%	-2.632%	-38.07%	-20.14%
Cc1nc(CCN)cc(N(C)Cc2nc3ccc(F)cc3[nH]2)n1	-3.111%	2.703%	-1.442%	-
Cc1nc(C2CCCN2C(=O)CCc2ccc(F)cc2)ncc1C(N)=O (stereo not given)	2%	0%	10.7%	1.524%
Cc1nc(C)c(CCNC(=O)NC2CC(=O)N(C(C)(C)C)C2)s1 (stereo not given)	0.3215%	0%	12.66%	-
Cc1[nH]c2c(C)ccc(C)c2c1CC(=O)NCC(O)c1cccnc1 (stereo not given)	-1.218%	2.632%	7.349%	-29.58%